Measurements from article doi:10.1101/2022.01.05.475133 (bioRxiv, 2022).
No constants are given. Whether binding was seen depends on the method and setting. For some assays here: Binding seen in cells or lysates may run through a third protein. Some entries that bind do so weakly or less than the wild type.

B1: GFP-tagged WT human TRPA1 (natural protein, UniProt O75762 1-1119, looked up)
chain: MKRSLRKMWRPGEKKEPQGVVYEDVPDDTEDFKESLKVVFEGSAYGLQNFNKQKKLKRCDDMDTFFLHYAAAEGQIELMEKITRDSSLEVLHEMDDYGNTPLHCAVEKNQIESVKFLLSRGANPNLRNFNMMAPLHIAVQGMNNEVMKVLLEHRTIDVNLEGENGNTAVIIACTTNNSEALQILLKKGAKPCKSNKWGCFPIHQAAFSGSKECMEIILRFGEEHGYSRQLHINFMNNGKATPLHLAVQNGDLEMIKMCLDNGAQIDPVEKGRCTAIHFAATQGATEIVKLMISSYSGSVDIVNTTDGCHETMLHRASLFDHHELADYLISVGADINKIDSEGRSPLILATASASWNIVNLLLSKGAQVDIKDNFGRNFLHLTVQQPYGLKNLRPEFMQMQQIKELVMDEDNDGCTPLHYACRQGGPGSVNNLLGFNVSIHSKSKDKKSPLHFAASYGRINTCQRLLQDISDTRLLNEGDLHGMTPLHLAAKNGHDKVVQLLLKKGALFLSDHNGWTALHHASMGGYTQTMKVILDTNLKCTDRLDEDGNTALHFAAREGHAKAVALLLSHNADIVLNKQQASFLHLALHNKRKEVVLTIIRSKRWDECLKIFSHNSPGNKCPITEMIEYLPECMKVLLDFCMLHSTEDKSCRDYYIEYNFKYLQCPLEFTKKTPTQDVIYEPLTALNAMVQNNRIELLNHPVCKEYLLMKWLAYGFRAHMMNLGSYCLGLIPMTILVVNIKPGMAFNSTGIINETSDHSEILDTTNSYLIKTCMILVFLSSIFGYCKEAGQIFQQKRNYFMDISNVLEWIIYTTGIIFVLPLFVEIPAHLQWQCGAIAVYFYWMNFLLYLQRFENCGIFIVMLEVILKTLLRSTVVFIFLLLAFGLSFYILLNLQDPFSSPLLSIIQTFSMMLGDINYRESFLEPYLRNELAHPVLSFAQLVSFTIFVPIVLMNLLIGLAVGDIAEVQKHASLKRIAMQVELHTSLEKKLPLWFLRKVDQKSTIVYPNKPRSGGMLFHIFCFLFCTGEIRQEIPNADKSLEMEILKQKYRLKDLTFLLEKQHELIKLIIQKMEIISETEDDDSHCSFQDRFKKEQMEQRNSRWNTVLRAVKAKTHHLEP
B2: Strep-MBP-R919* human TRPA1 (domain or fragment, UniProt O75762 1-918, looked up)
chain: MKRSLRKMWRPGEKKEPQGVVYEDVPDDTEDFKESLKVVFEGSAYGLQNFNKQKKLKRCDDMDTFFLHYAAAEGQIELMEKITRDSSLEVLHEMDDYGNTPLHCAVEKNQIESVKFLLSRGANPNLRNFNMMAPLHIAVQGMNNEVMKVLLEHRTIDVNLEGENGNTAVIIACTTNNSEALQILLKKGAKPCKSNKWGCFPIHQAAFSGSKECMEIILRFGEEHGYSRQLHINFMNNGKATPLHLAVQNGDLEMIKMCLDNGAQIDPVEKGRCTAIHFAATQGATEIVKLMISSYSGSVDIVNTTDGCHETMLHRASLFDHHELADYLISVGADINKIDSEGRSPLILATASASWNIVNLLLSKGAQVDIKDNFGRNFLHLTVQQPYGLKNLRPEFMQMQQIKELVMDEDNDGCTPLHYACRQGGPGSVNNLLGFNVSIHSKSKDKKSPLHFAASYGRINTCQRLLQDISDTRLLNEGDLHGMTPLHLAAKNGHDKVVQLLLKKGALFLSDHNGWTALHHASMGGYTQTMKVILDTNLKCTDRLDEDGNTALHFAAREGHAKAVALLLSHNADIVLNKQQASFLHLALHNKRKEVVLTIIRSKRWDECLKIFSHNSPGNKCPITEMIEYLPECMKVLLDFCMLHSTEDKSCRDYYIEYNFKYLQCPLEFTKKTPTQDVIYEPLTALNAMVQNNRIELLNHPVCKEYLLMKWLAYGFRAHMMNLGSYCLGLIPMTILVVNIKPGMAFNSTGIINETSDHSEILDTTNSYLIKTCMILVFLSSIFGYCKEAGQIFQQKRNYFMDISNVLEWIIYTTGIIFVLPLFVEIPAHLQWQCGAIAVYFYWMNFLLYLQRFENCGIFIVMLEVILKTLLRSTVVFIFLLLAFGLSFYILLNLQDPFSSPLLSIIQTFSMMLGDINY

Experiments:
FLAG-MBP-WT human TRPA1 = FLAG-MBP-WT human TRPA1 (human, UniProt O75762 1-1119); assay: native gel or EMSA
[1] = target: MBP-tagged R919* human TRPA1 (human) (UniProt O75762); assay: pull-down
[2] = target: MBP-tagged WT human TRPA1 (human) (UniProt O75762); assay: pull-down
[3] = target: 3xFLAG-tagged R919* human TRPA1 (human) (UniProt O75762); assay: co-IP + SEC

Molecule | binding (FLAG-MBP-WT human TRPA1) | binding [1] | binding [2] | binding [3]
Strep-MBP-WT human TRPA1 (from UniProt O75762 1-1119) | binds |  |  | 
3xFLAG-tagged WT human TRPA1 (from UniProt O75762 1-1119) |  | binds | binds | 
3xFLAG-tagged R919* human TRPA1 (from UniProt O75762 1-918) (domain or fragment) |  | binds | binds | 
GFP-tagged R919* human TRPA1 (from UniProt O75762 1-918) (domain or fragment) |  |  |  | binds
B1 |  |  |  | binds
B2 | binds |  |  | 
